Laboratory results: PubChem BioAssay AID652272 (Drosophila RNAi Screening Center, 2013)
Aim: 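Finding fly genes that regulate Hedgehog signal transduction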 (primary screen). System: Drosophila clone 8 (Cl8) cells. Knock-down reagent: long dsRNA against Drosophila genes. Detection: 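Plate reader light from a firefly reporter under a ptc promoter fragment that responds to Hedgehog, with Renilla light as transfection reference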. Scale: firefly Hh reporter signal: higher = more ptc reporter light; Renilla reference signal: higher = more Renilla control light. Active means: 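Called a hit if the two-replicate mean z-score lies below -2 or above +3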. Calls: active = hit: reporter lowered or raised; inactive = not a hit.
In all, the deposit lists about 21,000 reagents; below is an unselected part of those that have a named target and a result. In the full data, 503 (2.4%) got an active call. 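Raw plate light values, not normalised; calls rest on replicate z-scores that were not deposited; hits include reporter decreases as well as increases.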 Entries without a mark were called inactive. Names joined by + are all predicted targets of the reagent. Reagent sequences are not shown. The record does not give: the amount of reagent, the time to read-out.

no.	gene	PubChem SID	firefly Hh reporter signal, replicate 1	firefly Hh reporter signal, replicate 2	firefly Hh reporter signal, replicate 3	Renilla reference signal, replicate 1	Renilla reference signal, replicate 2
1	Smyd4-1 (GeneID 35985)	SID104186577	66497	41991		3264	1968
2	Rai1 (GeneID 2768882)	SID104199949	63643	1.65e5		2288	7107
3	CG8141 (GeneID 41622)	SID104196179	85981	87797		2716	2368
4	Taf4 (GeneID 39765)	SID104191089	47704	30010		2067	1353
5	CG10681 (GeneID 39425)	SID104189569	1.57e5	1.10e5		7088	4976
6	CG14736 (GeneID 41466)	SID104194748	88176	1.70e5		2080	4690
7	CG14053 (GeneID 31197)	SID104197700	97819	1.99e5		3317	7211
8	beat-Ia (GeneID 34947)	SID104183281	82713	43123		1765	4354
9	CG7691 (GeneID 42228)	SID104196079	7.53e5	87664		35301	2848
10	Argp (GeneID 261628)	SID104196302	93572	1.24e5		3204	3370
11	Sr-CII (GeneID 44219)	SID104187349	67499	41467		1937	3506
12	CG11699 (GeneID 32101)	SID104199211	98048	2.19e5		3398	8098
13	Mst77F (GeneID 40304)	SID104191663	1.54e5	1.28e5		5484	3916
14	CG13041 (GeneID 39801)	SID104189714	1.55e5			5072	4331
15	CG12426 (GeneID 43342)	SID104194308	1.11e5	94756		4392	2992
16	Sirt7 (GeneID 43433)	SID104194086	85772	1.04e5		1387	3235
17	CG6163 (GeneID 39274)	SID104190387	34201	59612	40036	7709	3084
18	CG13148 (GeneID 36398)	SID104186067	92571	91456		2032	5497
19	Syx16 (GeneID 33034)	SID104200299	65846	85553		1722	2154
20	Zfrp8 (GeneID 45021)	SID104184144	80829	47816		1873	4921
21	nmdyn-D6 (GeneID 32396)	SID104200147	88551	2.22e5		3012	8768
22	Mst84Db (GeneID 40888)	SID104192334	1.05e5	1.25e5		3931	3952
23	Mst84Db (GeneID 40888)	SID104192390	69712	81061		2922	2994
24	CG14671 (GeneID 40671)	SID104192049	95632	1.44e5		3344	4064
25	CG13992 (GeneID 33831)	SID104182116	85216	54470		2282	5360
26	CG13060 (GeneID 39802)	SID104189735	1.35e5			7510	4020
27	CG32846 (GeneID 318244)	SID104187804	77670	1.56e5		2343	6442
28	CG6283 (GeneID 43250)	SID104195801	1.10e5	85985		4096	3047
29	BckdhA (GeneID 41149)	SID104196187	74704	1.14e5		2601	2885
30	Hs6st (GeneID 42380)	SID104194140	5.98e5	1.25e5		31319	3019
31	Hs6st (GeneID 42380)	SID104194974	9.37e5	2.16e5		50915	5552
32	Hs6st (GeneID 42380)	SID104195373	9.60e5	7.03e5	1.98e5	54065	7688

Reprinted from above for reference:
no.	gene	PubChem SID	firefly Hh reporter signal, replicate 1	firefly Hh reporter signal, replicate 2	firefly Hh reporter signal, replicate 3	Renilla reference signal, replicate 1	Renilla reference signal, replicate 2
9	CG7691 (GeneID 42228)	SID104196079	7.53e5	87664		35301	2848
10	Argp (GeneID 261628)	SID104196302	93572	1.24e5		3204	3370
11	Sr-CII (GeneID 44219)	SID104187349	67499	41467		1937	3506
12	CG11699 (GeneID 32101)	SID104199211	98048	2.19e5		3398	8098
13	Mst77F (GeneID 40304)	SID104191663	1.54e5	1.28e5		5484	3916

The list goes on.
no.	gene	PubChem SID	firefly Hh reporter signal, replicate 1	firefly Hh reporter signal, replicate 2	firefly Hh reporter signal, replicate 3	Renilla reference signal, replicate 1	Renilla reference signal, replicate 2
33	Zip71B (GeneID 39626)	SID104189478	80253			1280	2080
34	CG5196 (GeneID 41522)	SID104195527	94528	1.32e5		3010	3268
35	Bsg (GeneID 318841)	SID104180802	3.98e5	1.22e5		20797	5253
36	Bsg (GeneID 318841)	SID104180803	5.44e5	1.97e5		27305	7544
37	CG9992 (GeneID 32605)	SID104200018	81368	81412		1520	1255
38	CG11267 (GeneID 39476)	SID104189625	44576	69378	53626	5595	3635
39	Obp50d (GeneID 246436)	SID104185275	70007	1.82e5		2007	8073
40	nht (GeneID 34902)	SID104181768	1.31e5	5.23e5	1.03e5	3072	29430
41	CG43777 + CG43776 + CG43775	SID104183998	76816	68112		1596	5798
42	IFT54 (GeneID 41739)	SID104195261	1.31e5	1.21e5		4331	3785
43	LSm3 (GeneID 42842)	SID104195712	5.22e5	1.12e5		33713	3912
44	CG5418 (GeneID 34663)	SID104182649	1.27e5	82679		3120	7682
45	CG11313 (GeneID 43646)	SID104194087	62757	1.23e5		1194	2988
46	CG9427 (GeneID 41164)	SID104196282	1.32e5	99552		5913	3856
47	CG2124 (GeneID 31989)	SID104198000	52165	1.60e5		1413	6101
48	rad (retired record) (GeneID 32251)	SID104198758	4.40e5	1.28e5		19737	2611
49	rad (retired record) (GeneID 32251)	SID104199479	1.01e5	6.17e5	3.48e5	2941	3734
50	rad (retired record) (GeneID 32251)	SID104199608	42636	1.31e5		1138	3762
51	Agpat1 (GeneID 32230)	SID104199671	1.06e5	2.44e5		4103	10368
52	Agpat1 (GeneID 32230)	SID104199672	1.11e5	2.89e5		4045	11549
53	CG8229 (GeneID 35898)	SID104186906	1.24e5	80405		4595	2972
54	Iyd (GeneID 39242)	SID104190406	56731	41365	46592	3441	3604
55	Iyd (GeneID 39242)	SID104190407	33995	54107	48984	4149	3717
56	CG30349 (GeneID 35885)	SID104186213	97904	49562		3268	5341
57	CG30349 (GeneID 35885)	SID104186631	83693	38539		2592	4369
